At least one structure is not confirmed: it was looked up by name or label, or the drawing left a doubt.
Test system: newborn Wistar rats
Experiment: Postnatal dexamethasone rat model of diminished alveolarization, BALF PC content
Type: in vivo
[1] = dexamethasone-treated neonatal rats, day 10

C[C@@H]1C[C@H]2[C@@H]3CCC4=CC(=O)C=C[C@]4(C)[C@@]3(F)[C@@H](O)C[C@]2(C)[C@@]1(O)C(=O)CO [dexamethasone]
palmitoyloleoyl-PC (16:0/18:1PC) in BALF (dexamethasone-treated neonatal rats): elevated | dipalmitoyl-PC (16:0/16:0PC) in BALF [1]: also elevated | palmitoylmyristoyl-PC (16:0/14:0PC) in BALF [1]: significantly reduced | palmitoylpalmitoleoyl-PC (16:0/16:1PC) in BALF [1]: elevated | total PC content in BALF (post partum dexamethasone treatment, day 10, vs control): significant increase

Source: patent publication US20070010429A1, “Phospholipid formulations and uses thereof in lung disease detection and treatment” (The Hospital For Sick Children, priority 2005, published 2007)
